No constants are given. Whether binding was seen depends on the method and setting. In cells and extracts the contact can be indirect. Some binding calls cover weakened binding; strength is not graded here. Tags and fused reporters may be left off the sequences shown.
T1: wild-type ferroportin with Flag tag (Flag-FPN) (human), Q9NP59
T1 chain: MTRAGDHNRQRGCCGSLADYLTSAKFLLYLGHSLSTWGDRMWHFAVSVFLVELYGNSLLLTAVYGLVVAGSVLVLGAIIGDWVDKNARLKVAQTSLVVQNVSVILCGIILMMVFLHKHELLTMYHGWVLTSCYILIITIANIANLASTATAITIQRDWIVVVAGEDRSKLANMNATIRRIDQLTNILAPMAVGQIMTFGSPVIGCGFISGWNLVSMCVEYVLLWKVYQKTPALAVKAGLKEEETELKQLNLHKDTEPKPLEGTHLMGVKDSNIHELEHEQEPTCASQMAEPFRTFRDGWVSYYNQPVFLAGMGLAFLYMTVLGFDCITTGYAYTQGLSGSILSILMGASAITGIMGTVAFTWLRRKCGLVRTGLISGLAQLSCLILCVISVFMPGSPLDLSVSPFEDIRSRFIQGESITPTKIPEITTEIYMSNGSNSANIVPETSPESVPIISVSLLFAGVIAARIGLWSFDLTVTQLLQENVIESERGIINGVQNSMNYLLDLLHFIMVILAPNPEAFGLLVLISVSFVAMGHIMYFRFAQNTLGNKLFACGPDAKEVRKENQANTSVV

T2: wild-type ferroportin with HA tag (HA-FPN) (human), Q9NP59
T2 chain: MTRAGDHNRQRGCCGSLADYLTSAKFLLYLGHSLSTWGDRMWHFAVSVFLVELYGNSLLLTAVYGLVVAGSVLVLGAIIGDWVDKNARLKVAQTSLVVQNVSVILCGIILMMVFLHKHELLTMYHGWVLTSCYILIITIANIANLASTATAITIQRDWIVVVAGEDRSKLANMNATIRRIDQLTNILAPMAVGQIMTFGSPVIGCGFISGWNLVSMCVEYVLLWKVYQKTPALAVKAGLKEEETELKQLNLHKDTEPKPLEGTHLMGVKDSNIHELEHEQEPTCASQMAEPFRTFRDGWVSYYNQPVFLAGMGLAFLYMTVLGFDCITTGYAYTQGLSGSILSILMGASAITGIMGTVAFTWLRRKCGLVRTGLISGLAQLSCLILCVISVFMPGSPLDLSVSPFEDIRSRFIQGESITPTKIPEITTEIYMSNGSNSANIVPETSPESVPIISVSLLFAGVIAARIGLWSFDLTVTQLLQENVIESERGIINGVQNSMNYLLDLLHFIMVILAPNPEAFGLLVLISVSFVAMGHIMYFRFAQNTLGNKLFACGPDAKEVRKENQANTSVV

T3: wild-type ferroportin with HA tag (HA-FPN) (human) (UniProt Q9NP59)
T3 sequence: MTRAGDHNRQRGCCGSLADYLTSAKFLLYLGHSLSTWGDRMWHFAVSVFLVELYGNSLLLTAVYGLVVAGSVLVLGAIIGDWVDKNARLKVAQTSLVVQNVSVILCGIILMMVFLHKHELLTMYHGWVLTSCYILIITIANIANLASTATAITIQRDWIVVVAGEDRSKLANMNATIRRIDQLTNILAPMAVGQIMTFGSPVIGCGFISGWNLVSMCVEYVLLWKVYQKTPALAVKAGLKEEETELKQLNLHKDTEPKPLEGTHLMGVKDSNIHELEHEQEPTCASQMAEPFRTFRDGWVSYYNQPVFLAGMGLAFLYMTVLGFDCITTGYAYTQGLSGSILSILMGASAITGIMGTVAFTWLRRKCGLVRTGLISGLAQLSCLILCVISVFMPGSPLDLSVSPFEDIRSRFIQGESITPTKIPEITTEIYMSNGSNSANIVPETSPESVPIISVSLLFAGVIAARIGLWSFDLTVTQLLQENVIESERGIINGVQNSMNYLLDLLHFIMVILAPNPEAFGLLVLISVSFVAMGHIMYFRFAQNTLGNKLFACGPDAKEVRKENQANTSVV

T4: wild-type ferroportin with Flag tag (Flag-FPN) (human) (UniProt Q9NP59)
T4 sequence: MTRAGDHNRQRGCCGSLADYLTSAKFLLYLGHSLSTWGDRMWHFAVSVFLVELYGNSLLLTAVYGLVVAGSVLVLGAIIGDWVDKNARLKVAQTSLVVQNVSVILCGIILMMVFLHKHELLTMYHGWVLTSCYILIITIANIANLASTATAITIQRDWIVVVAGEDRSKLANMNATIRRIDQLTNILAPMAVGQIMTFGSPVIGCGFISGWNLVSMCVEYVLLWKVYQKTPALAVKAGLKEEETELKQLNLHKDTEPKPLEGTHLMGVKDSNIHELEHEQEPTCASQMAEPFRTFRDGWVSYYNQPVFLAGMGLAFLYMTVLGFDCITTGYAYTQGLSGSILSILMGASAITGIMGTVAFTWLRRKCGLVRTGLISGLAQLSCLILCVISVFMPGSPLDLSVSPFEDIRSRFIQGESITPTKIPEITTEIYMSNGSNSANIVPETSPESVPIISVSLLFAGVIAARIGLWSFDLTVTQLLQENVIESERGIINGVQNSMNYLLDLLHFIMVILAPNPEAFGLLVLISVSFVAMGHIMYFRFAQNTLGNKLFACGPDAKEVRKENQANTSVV


Columns and labels:
Test in all cases: proximity ligation; Duolink mouse/rabbit kit on HuH7 cells co-transfected with two tagged constructs (500 ng each), 24 h post-transfection; antibodies against the epitope tags (Flag, myc, HA)
[1] = molecular target: T1, wild-type ferroportin with Flag tag …; conditions: remark: other sources report otherwise
[2] = molecular target: T2, wild-type ferroportin with HA tag …; conditions: remark: other sources report otherwise
[3] = molecular target: T3, wild-type ferroportin with HA tag (HA-FPN) (human)
[4] = molecular target: T4, wild-type ferroportin with Flag tag (Flag-FPN) (human)

Binder | binding [1] | binding [2] | binding [3] | binding [4]
wild-type ferroportin with N-terminal myc tag (N-myc-FPN), Q9NP59 1-571 (protein) MTRAGDHNRQRGCCGSLADYLTSAKFLLYLGHSLSTWGDRMWHFAVSVFLVELYGNSLLLTAVYGLVVAGSVLVLGAIIGDWVDKNARLKVAQTSLVVQNVSVILCGIILMMVFLHKHELLTMYHGWVLTSCYILIITIANIANLASTATAITIQRDWIVVVAGEDRSKLANMNATIRRIDQLTNILAPMAVGQIMTFGSPVIGCGFISGWNLVSMCVEYVLLWKVYQKTPALAVKAGLKEEETELKQLNLHKDTEPKPLEGTHLMGVKDSNIHELEHEQEPTCASQMAEPFRTFRDGWVSYYNQPVFLAGMGLAFLYMTVLGFDCITTGYAYTQGLSGSILSILMGASAITGIMGTVAFTWLRRKCGLVRTGLISGLAQLSCLILCVISVFMPGSPLDLSVSPFEDIRSRFIQGESITPTKIPEITTEIYMSNGSNSANIVPETSPESVPIISVSLLFAGVIAARIGLWSFDLTVTQLLQENVIESERGIINGVQNSMNYLLDLLHFIMVILAPNPEAFGLLVLISVSFVAMGHIMYFRFAQNTLGNKLFACGPDAKEVRKENQANTSVV | binds | binds | – | –
wild-type ferroportin with C-terminal myc tag (C-myc-FPN), Q9NP59 1-571 (protein) MTRAGDHNRQRGCCGSLADYLTSAKFLLYLGHSLSTWGDRMWHFAVSVFLVELYGNSLLLTAVYGLVVAGSVLVLGAIIGDWVDKNARLKVAQTSLVVQNVSVILCGIILMMVFLHKHELLTMYHGWVLTSCYILIITIANIANLASTATAITIQRDWIVVVAGEDRSKLANMNATIRRIDQLTNILAPMAVGQIMTFGSPVIGCGFISGWNLVSMCVEYVLLWKVYQKTPALAVKAGLKEEETELKQLNLHKDTEPKPLEGTHLMGVKDSNIHELEHEQEPTCASQMAEPFRTFRDGWVSYYNQPVFLAGMGLAFLYMTVLGFDCITTGYAYTQGLSGSILSILMGASAITGIMGTVAFTWLRRKCGLVRTGLISGLAQLSCLILCVISVFMPGSPLDLSVSPFEDIRSRFIQGESITPTKIPEITTEIYMSNGSNSANIVPETSPESVPIISVSLLFAGVIAARIGLWSFDLTVTQLLQENVIESERGIINGVQNSMNYLLDLLHFIMVILAPNPEAFGLLVLISVSFVAMGHIMYFRFAQNTLGNKLFACGPDAKEVRKENQANTSVV | binds | binds | – | –
p.V162del ferroportin mutant with C-terminal myc tag (C-myc-FPN-V162del) (protein, UniProt Q9NP59 1-571) MTRAGDHNRQRGCCGSLADYLTSAKFLLYLGHSLSTWGDRMWHFAVSVFLVELYGNSLLLTAVYGLVVAGSVLVLGAIIGDWVDKNARLKVAQTSLVVQNVSVILCGIILMMVFLHKHELLTMYHGWVLTSCYILIITIANIANLASTATAITIQRDWIVVAGEDRSKLANMNATIRRIDQLTNILAPMAVGQIMTFGSPVIGCGFISGWNLVSMCVEYVLLWKVYQKTPALAVKAGLKEEETELKQLNLHKDTEPKPLEGTHLMGVKDSNIHELEHEQEPTCASQMAEPFRTFRDGWVSYYNQPVFLAGMGLAFLYMTVLGFDCITTGYAYTQGLSGSILSILMGASAITGIMGTVAFTWLRRKCGLVRTGLISGLAQLSCLILCVISVFMPGSPLDLSVSPFEDIRSRFIQGESITPTKIPEITTEIYMSNGSNSANIVPETSPESVPIISVSLLFAGVIAARIGLWSFDLTVTQLLQENVIESERGIINGVQNSMNYLLDLLHFIMVILAPNPEAFGLLVLISVSFVAMGHIMYFRFAQNTLGNKLFACGPDAKEVRKENQANTSVV | – | – | binds | binds

Source: publication PMC7201565
